The values below come from paper PMC10813316.

Amino acid sequences for entries named in this document (tags omitted). A change or cut given only in a name is not applied to a line headed by its entry.
UniProt P55085: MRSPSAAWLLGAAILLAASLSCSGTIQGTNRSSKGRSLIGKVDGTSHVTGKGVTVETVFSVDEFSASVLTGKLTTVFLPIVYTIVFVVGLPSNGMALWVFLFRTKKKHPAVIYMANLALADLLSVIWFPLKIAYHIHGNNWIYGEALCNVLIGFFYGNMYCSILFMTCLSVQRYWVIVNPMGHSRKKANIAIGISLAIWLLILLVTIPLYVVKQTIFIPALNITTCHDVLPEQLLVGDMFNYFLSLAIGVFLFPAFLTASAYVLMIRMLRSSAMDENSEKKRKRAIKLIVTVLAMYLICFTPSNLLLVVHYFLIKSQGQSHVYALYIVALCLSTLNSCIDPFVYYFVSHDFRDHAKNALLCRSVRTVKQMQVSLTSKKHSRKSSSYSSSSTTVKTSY

Results are given in words; binding and its absence hold for the method and conditions named. In cells and extracts the contact can be indirect. Binding calls can cover weak binding; strength is not graded here.

The assay deals with protease-activated receptor 2 (PAR2), endogenous (human (endogenous in ES2 and OVCAR3)) (UniProt P55085). The assay can be described thus: co-IP; OVCAR3 cells activated with SLIGKV for the indicated times; lysates precipitated with anti-PAR2 antibodies, blot with anti-Etk/Bmx; endogenous proteins.

B1: epithelial tyrosine kinase (Etk), also known as Bmx, endogenous in OVCAR3 cells (enzyme, UniProt P51813 1-675)
chain: MDTKSILEELLLKRSQQKKKMSPNNYKERLFVLTKTNLSYYEYDKMKRGSRKGSIEIKKIRCVEKVNLEEQTPVERQYPFQIVYKDGLLYVYASNEESRSQWLKALQKEIRGNPHLLVKYHSGFFVDGKFLCCQQSCKAAPGCTLWEAYANLHTAVNEEKHRVPTFPDRVLKIPRAVPVLKMDAPSSSTTLAQYDNESKKNYGSQPPSSSTSLAQYDSNSKKIYGSQPNFNMQYIPREDFPDWWQVRKLKSSSSSEDVASSNQKERNVNHTTSKISWEFPESSSSEEEENLDDYDWFAGNISRSQSEQLLRQKGKEGAFMVRNSSQVGMYTVSLFSKAVNDKKGTVKHYHVHTNAENKLYLAENYCFDSIPKLIHYHQHNSAGMITRLRHPVSTKANKVPDSVSLGNGIWELKREEITLLKELGSGQFGVVQLGKWKGQYDVAVKMIKEGSMSEDEFFQEAQTMMKLSHPKLVKFYGVCSKEYPIYIVTEYISNGCLLNYLRSHGKGLEPSQLLEMCYDVCEGMAFLESHQFIHRDLAARNCLVDRDLCVKVSDFGMTRYVLDDQYVSSVGTKFPVKWSAPEVFHYFKYSSKSDVWAFGILMWEVFSLGKQPYDLYDNSQVVLKVSQGHRLYRPHLASDTIYQIMYSCWHELPEKRPTFQQLLSSIEPLREKDKH
On to B1, for which the binding result is recorded as “binds”.
